Data taken from paper doi:10.1101/2025.02.13.638021.
Results are given in words; binding and its absence hold for the method and conditions named. For part of these data: In cells and extracts the contact can be indirect. Some entries that bind do so weakly or less than the wild type.

The chains behind the UniProt entries cited, without tags or fusion partners. Where a name states a change or a piece, a line headed by the entry shows the natural chain unless it says otherwise.
UniProt P84092: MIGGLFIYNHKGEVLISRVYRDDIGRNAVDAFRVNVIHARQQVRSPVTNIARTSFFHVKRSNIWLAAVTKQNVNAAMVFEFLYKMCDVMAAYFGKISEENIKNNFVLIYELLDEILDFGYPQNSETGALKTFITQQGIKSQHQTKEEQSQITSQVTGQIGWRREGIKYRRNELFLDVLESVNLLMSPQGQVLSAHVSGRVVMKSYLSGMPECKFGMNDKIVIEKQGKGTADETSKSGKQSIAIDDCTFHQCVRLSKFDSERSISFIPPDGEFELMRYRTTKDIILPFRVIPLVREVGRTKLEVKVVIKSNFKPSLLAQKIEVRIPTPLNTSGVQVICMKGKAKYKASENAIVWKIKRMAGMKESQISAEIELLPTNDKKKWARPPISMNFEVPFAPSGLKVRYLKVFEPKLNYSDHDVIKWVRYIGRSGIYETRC
UniProt P63010: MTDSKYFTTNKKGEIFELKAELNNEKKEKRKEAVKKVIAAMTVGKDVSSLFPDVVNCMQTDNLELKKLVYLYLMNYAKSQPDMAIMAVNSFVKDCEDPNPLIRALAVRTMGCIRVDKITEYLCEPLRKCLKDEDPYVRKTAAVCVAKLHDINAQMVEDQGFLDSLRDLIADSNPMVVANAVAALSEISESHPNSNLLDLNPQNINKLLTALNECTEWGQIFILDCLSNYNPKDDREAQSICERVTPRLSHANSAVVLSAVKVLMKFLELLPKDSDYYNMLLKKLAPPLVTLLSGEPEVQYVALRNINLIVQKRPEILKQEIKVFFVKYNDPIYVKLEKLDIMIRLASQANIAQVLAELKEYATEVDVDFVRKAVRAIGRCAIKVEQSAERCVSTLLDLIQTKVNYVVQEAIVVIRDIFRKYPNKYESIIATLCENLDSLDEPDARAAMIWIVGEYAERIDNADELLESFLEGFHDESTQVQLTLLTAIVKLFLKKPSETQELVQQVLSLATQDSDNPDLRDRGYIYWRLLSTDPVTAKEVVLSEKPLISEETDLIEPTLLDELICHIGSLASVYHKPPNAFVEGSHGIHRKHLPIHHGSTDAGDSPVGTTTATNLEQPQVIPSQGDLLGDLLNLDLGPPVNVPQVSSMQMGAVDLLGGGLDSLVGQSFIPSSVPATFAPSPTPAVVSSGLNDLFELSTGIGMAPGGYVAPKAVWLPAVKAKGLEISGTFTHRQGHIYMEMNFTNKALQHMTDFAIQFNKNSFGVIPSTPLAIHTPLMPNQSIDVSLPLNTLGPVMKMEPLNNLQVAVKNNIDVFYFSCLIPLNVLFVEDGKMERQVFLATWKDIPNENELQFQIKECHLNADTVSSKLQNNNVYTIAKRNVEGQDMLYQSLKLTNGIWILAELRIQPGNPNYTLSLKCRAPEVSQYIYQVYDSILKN

What was measured:
[1] = target: GFP-Avi-tag-βGal [β-galactosidase: P00722]; experiment: pull-down
[2] = target: myc-μ2^S45A (UniProt P84092); experiment: co-IP
[3] = target: myc-μ2^WT (UniProt P84092); experiment: co-IP

recombinant his-tagged μ2 (μ2 subunit of the AP2 adaptor complex) (from UniProt P84092 1-435)
binding [1]: no binding (tested: 0.2 mg/ml his-µ2)

AP2 β2 subunit (β2 adaptin) (from UniProt P63010 1-937)
binding [2]: binds
binding [3]: binds
